Experimental data: PubChem BioAssay AID686937 (Drosophila RNAi Screening Center, 2013)
In all, the deposit lists about 23,000 reagents; this is an unselected part of those that have a named target and a result. 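Reduced-secretion tags in replicate 1 do not always agree with the z-scores; no criterion for assigning the tags was given.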 The numbers tell different reagents against one gene apart. A plus sign joins genes that one reagent is predicted to hit. Not all columns of the deposit are shown. Reagent sequences are not shown. Not given: the amount of reagent.

Assay: 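Knock-downs that reduce output of a secreted reporter enzyme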 (primary screen)
Cells: Drosophila S2 cells expressing secreted horseradish peroxidase
Reagent: long dsRNA against Drosophila genes
Timing: about 5.5 days (5 days dsRNA, then 12 h reporter induction)
Challenge: reporter expression induced after 5 days of dsRNA, read 12 h later; inducer not stated
Measured: 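Chemiluminescent measurement of peroxidase in the medium 12 h after reporter induction, following 5 days of dsRNA, given as a z-score per plate; higher means more secretion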
Reading the numbers: z-score: higher = more reporter secreted into medium

For Inx3 the deposit lists z-score, replicate 1 = 0.5.
Silencing of Cyp4e1 came out at: z-score, replicate 1 = 0.26.
CG32547 #1 gave z-score, replicate 1 = -0.01.
Silencing of CG32547 #2 gave: z-score, replicate 1 = -0.13.
CG32547 #3 showed z-score, replicate 1 = 0.37.
For CG32547 #4 the deposit lists z-score, replicate 1 = 0.23.
Silencing of stum #1 came out at: z-score, replicate 1 = 0.18.
Against stum #2, the entry reads z-score, replicate 1 = 0.22.
Knock-down of Phb2 resulted in: z-score, replicate 1 = -3.28.
Against Ppr-Y the deposit lists z-score, replicate 1 = 0.01.
Silencing of fu resulted in: z-score, replicate 1 = -1.88.
Rpn13 scored z-score, replicate 1 = -0.13.
For pre-mod(mdg4)-W + pre-mod(mdg4)-Y + mod(mdg4) + 3 more, the values are z-score, replicate 1 = 0.43.
With knock-down of CG11089 + CG31381 #1 the results were z-score, replicate 1 = 0.2.
Against CG11089 + CG31381 #2, the entry reads z-score, replicate 1 = 0.09.
For stumps #1 the deposit lists z-score, replicate 1 = 0.49.
stumps #2 gave z-score, replicate 1 = 0.48.
Silencing of stumps #3 resulted in: z-score, replicate 1 = 0.27.
CG10068 scored z-score, replicate 1 = 0.02.
Depletion of nur gave: z-score, replicate 1 = 0.73.
P58IPK gave z-score, replicate 1 = -0.56.
Glyp gave z-score, replicate 1 = 0.62.
After knock-down of CG34445, the screen gave z-score, replicate 1 = -0.78.
For snoRNA:Me28S-A982b + Uhg4 + snoRNA:Me28S-G3255a + 1 more, the entry reads z-score, replicate 1 = 0.09.
Knock-down of CG17028 gave: z-score, replicate 1 = 0.3.
After knock-down of Amph, the record shows z-score, replicate 1 = 0.07.
After knock-down of cdi, the screen gave z-score, replicate 1 = -0.05.
After knock-down of mei-W68, the screen gave z-score, replicate 1 = 0.48.
Against lov the deposit lists z-score, replicate 1 = 0.47.
With knock-down of stx #1, the screen gave z-score, replicate 1 = -1.54.
Knock-down of stx #2 gave: z-score, replicate 1 = -0.41.
For Pburs, the entry reads z-score, replicate 1 = 0.34.
After knock-down of CG31268 the results were z-score, replicate 1 = 0.17.
With knock-down of gammaSnap2, the screen gave z-score, replicate 1 = 0.34.
Depletion of Septin5 gave: z-score, replicate 1 = 0.27.
CG14664 gave z-score, replicate 1 = 0.39.
After knock-down of CG14054, the screen gave z-score, replicate 1 = 0.07.
Npc2f showed z-score, replicate 1 = 0.35.
CG14629 showed z-score, replicate 1 = -0.06.
Against CG4733, the entry reads z-score, replicate 1 = 0.44.

In a second layout: results already given.
{"predicted target": "lov", "reagent": 1, "z-score, replicate 1": 0.47}
{"predicted target": "stx", "reagent": 1, "z-score, replicate 1": -1.54}
{"predicted target": "stx", "reagent": 2, "z-score, replicate 1": -0.41}
